From paper PMC3524233 come the findings set out here.

Assay [1] concerns the target GFPs10 tagged p65, Q04206. The assay is described as follows: split reporter; tripartite split GFP complementation in the cell: GFPs10- and GFPs11-tagged NF-κB proteins co-transfected with the detector GFPs1-9 in CHO-CD14 cells; fluorescence microscopy after overnight incubation. The following applies: remark: other sources report otherwise.
The target of assay [2] is T1, GFPs11 tagged IκBα, P25963.
T1 chain: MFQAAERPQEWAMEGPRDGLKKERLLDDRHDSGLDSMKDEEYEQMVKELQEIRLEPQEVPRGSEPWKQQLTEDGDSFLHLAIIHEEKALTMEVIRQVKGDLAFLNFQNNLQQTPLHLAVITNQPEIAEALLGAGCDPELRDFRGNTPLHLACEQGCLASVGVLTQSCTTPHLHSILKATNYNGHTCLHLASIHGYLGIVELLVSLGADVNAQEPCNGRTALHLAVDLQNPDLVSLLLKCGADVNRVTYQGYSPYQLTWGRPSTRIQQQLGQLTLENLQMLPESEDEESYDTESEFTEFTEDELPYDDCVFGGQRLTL
The description is as above. To be noted: remark: other sources report otherwise.

These are yes or no findings as the source states them, for the method shown. Binding seen in cells or lysates may run through a third protein. Some binding calls cover weakened binding; strength is not graded here. Where a sequence is shown, tags or fusion partners need not be part of it.

B1: GFPs11 tagged IκBα, P25963 1-317 (protein)
chain: MFQAAERPQEWAMEGPRDGLKKERLLDDRHDSGLDSMKDEEYEQMVKELQEIRLEPQEVPRGSEPWKQQLTEDGDSFLHLAIIHEEKALTMEVIRQVKGDLAFLNFQNNLQQTPLHLAVITNQPEIAEALLGAGCDPELRDFRGNTPLHLACEQGCLASVGVLTQSCTTPHLHSILKATNYNGHTCLHLASIHGYLGIVELLVSLGADVNAQEPCNGRTALHLAVDLQNPDLVSLLLKCGADVNRVTYQGYSPYQLTWGRPSTRIQQQLGQLTLENLQMLPESEDEESYDTESEFTEFTEDELPYDDCVFGGQRLTL
On to B1, for which the binding result in assay [1] is listed as “binds”; in assay [2], “no binding”.
